These are yes or no findings as the source states them, for the method shown. Some results given as binding are weak or reduced against the parent protein; the word gives no strength.

Sequences of proteins named here, by UniProt entry; tags and fusion partners are left off. A change or cut given only in a name is not applied to a line headed by its entry. A line that says so, or that is headed by a name, gives the form on record, which may keep a tag or linker.
H6NA3 (P06731, form named): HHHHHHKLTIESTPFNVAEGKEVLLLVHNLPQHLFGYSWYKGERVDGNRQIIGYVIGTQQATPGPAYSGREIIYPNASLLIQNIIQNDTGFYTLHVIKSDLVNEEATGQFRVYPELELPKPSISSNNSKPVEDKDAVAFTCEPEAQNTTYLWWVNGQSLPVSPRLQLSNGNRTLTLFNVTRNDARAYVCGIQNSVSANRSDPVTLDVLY

One assay concerns the target H6NA3 (UniProt P06731). The assay can be described thus: competition phage ELISA on NA3, soluble peptide DX306 at 10, 5, 2.5, 0.5 and 0 uM, and no target.
DWVCEIVKNQWICNPL [315A-18-E01 (phage isolate)]: the binding entry was “binds”.
For DWVCEYFKNQWFCNVL [304A-12-H12 (phage isolate)], the binding result was “binds”.
Still for that read-out and setting: with DWVCEWLKMQWACNIL [315A-17-B01 (phage isolate)] the entry was “binds”; with DWVCEFIKSQWFCNVL [315A-17-G08 (phage isolate)], “binds”; with DWVCEFFKDQWFCNIL [315A-18-E02 (phage isolate)], “binds”.
DWVCEWLKPQWYCNSL [315A-17-B12 (phage isolate)]: the binding entry was “binds”.

A further assay has as its target H6NA3 (UniProt P06731). The assay can be described thus: competition phage ELISA, target 0.1 ug/well; blocked ligands: phage A07, G08, 304A-11-F02.
For NWVCNLFKNQWFCNSY [DX-207], the binding result is recorded as “binds”.

A further assay concerns the target H6NA3 (UniProt P06731). The assay can be described thus: competition phage ELISA, target 0.1 ug/well, soluble peptide DX-207 at 20, 2 and 0 uM, and no target.
Take DWVCEYFKNQWFCNVL [304A-12-H12 (phage isolate)]: the binding entry is given as “binds”.
On the same count and under the same terms, with DWVCNLFKNQWFCDTL [304A-14-A12 (phage isolate)] the entry was “binds”; with NWVCNLFKNQWFCNSY [TN10/9 Isolate G08 (phage isolate)], “binds”.
In the case of DWVCENKKDQWTCNLL [TN10/9 Isolate A07 (phage isolate)], the binding entry is reported as “binds”.

In the next assay the target is H6NA3 (UniProt P06731). The assay can be described thus: phage ELISA on NA3.
As to DWVCEIVKNQWICNPL [315A-18-E01 (phage isolate)], the binding result is on record as “binds”.
On the same count and under the same terms, with DWVCEYFKNQWFCNVL [304A-12-H12 (phage isolate)] the entry was “binds”; with DWVCEWLKMQWACNIL [315A-17-B01 (phage isolate)], “binds”.
As for DWVCEFIKSQWFCNVL [315A-17-G08 (phage isolate)], the binding result was “binds”.
Same read-out and setting: next, DWVCNLFKNQWFCDTL [304A-14-A12 (phage isolate)]: “binds”.
The same measure, in the same setting: next, DWVCEFFKDQWFCNIL [315A-18-E02 (phage isolate)]: “binds”; DWVCEWLKPQWYCNSL [315A-17-B12 (phage isolate)]: “binds”.

Another assay has as its target H6NA3 (UniProt P06731). The assay can be described thus: phage ELISA on H6NA3, anti-M13-HRP, OD630.
For NWRCKLFPRYPYCSSW [TN10/9 Isolate G01 (phage isolate)], the binding entry was “no binding (tested: 5x10^10 phage/well on 100 ng H6NA3/well)”.
For RYCEFFPWSLHCGRP [TN10/9 Isolate B10 (phage isolate)], the binding result was “no binding (tested: 5x10^10 phage/well on 100 ng H6NA3/well)”.

The next assay has as its target H6NA3 (UniProt P06731). The assay can be described thus: phage ELISA, NA3 at 30, 10.0, 3.0 and 0 ng/well.
With DWVCEIVKNQWICNPL [315A-18-E01 (phage isolate)], the binding entry is listed as “binds”.
The same measure, in the same setting: next, DWVCEYFKNQWFCNVL [304A-12-H12 (phage isolate)]: “binds”.
Still for that read-out and setting: with DWVCEWLKMQWACNIL [315A-17-B01 (phage isolate)] the entry was “binds”.
Same read-out and setting: next, DWVCEFIKSQWFCNVL [315A-17-G08 (phage isolate)]: “binds”; DWVCEFFKDQWFCNIL [315A-18-E02 (phage isolate)]: “binds”.
As to DWVCEWLKPQWYCNSL [315A-17-B12 (phage isolate)], the binding result is given as “binds”.

The next assay concerns the target H6NA3 (UniProt P06731). The assay can be described thus: phage ELISA, NA3 at 30, 10, 3 and 0 ng/well.
For DWVCEYFKNQWFCNVL [304A-12-H12 (phage isolate)], the binding entry was “binds”.

The target in a further assay is H6NA3 (UniProt P06731). The assay can be described thus: phage ELISA, NA3 coated at 0.1, 0.05, 0.01, 0.005, 0.001 ug/well and no target.
For DWVCEYFKNQWFCNVL [304A-12-H12 (phage isolate)], the binding result was “binds”.
For the molecule DWVCNLFKNQWFCDTL [304A-14-A12 (phage isolate)], the binding result was “binds”.
Take NWVCNLFKNQWFCNSY [TN10/9 Isolate G08 (phage isolate)]: the binding entry was “binds”.
Still for that read-out and setting: with DWVCENKKDQWTCNLL [TN10/9 Isolate A07 (phage isolate)] the entry was “binds”.

The target in a further assay is H6NA3 (UniProt P06731). The assay can be described thus: phage ELISA on dried H6NA3 plate.
As to NWFCEMIGRQWGCVPS [TN10/9 Isolate F11 (phage isolate)], the binding result was “binds”.
On the same count and under the same terms, with DWVCNFDQGLAHCFPS [TN10/9 Isolate D04 (phage isolate)] the entry was “binds”.
The same measure, in the same setting: next, NWDCMFGAEGWACSPW [TN10/9 Isolate E01 (phage isolate)]: “binds”.
Still for that read-out and setting: with NWVCNLFKNQWFCNSY [TN10/9 Isolate G08 (phage isolate)] the entry was “binds”; with DWVCENKKDQWTCNLL [TN10/9 Isolate A07 (phage isolate)], “binds”.

A further assay concerns the target H6NA3 (UniProt P06731). The assay can be described thus: phage ELISA, varying amounts of NA3 per well (FIG. 2).
As for DWVCEYFKNQWFCNVL [304A-12-H12 (phage isolate)], the binding result is recorded as “binds”.
The same measure, in the same setting: next, DWVCNLFKNQWFCDTL [304A-14-A12 (phage isolate)]: “binds”; NWVCNLFKNQWFCNSY [TN10/9 Isolate G08 (phage isolate)]: “binds”; DWVCENKKDQWTCNLL [TN10/9 Isolate A07 (phage isolate)]: “binds”.

Another assay concerns the target H6NA3 (UniProt P06731). The assay can be described thus: competition phage ELISA on NA3, soluble peptide DX306 at 20, 10, 5, 2.5, 1.25, 0.625 and 0 uM, and no target [a].
Turning to DWVCEYFKNQWFCNVL [304A-12-H12 (phage isolate)], the binding result is given as “binds”.

The next assay addresses H6NA3 (UniProt P06731). The assay can be described thus: phage ELISA on H6NA3 coated at 100 ng/well, 5x10^10 phage/well, anti-M13-HRP; bars No Ab, 10 nM and 100 nM cT84.66, BSA.
For the molecule NWFCEMIGRQWGCVPS [TN10/9 Isolate F11 (phage isolate)], the binding entry is “binds”.
Same read-out and setting: with DWVCNFDQGLAHCFPS [TN10/9 Isolate D04 (phage isolate)] the entry was “binds”; with NWDCMFGAEGWACSPW [TN10/9 Isolate E01 (phage isolate)], “binds”; with NWVCNLFKNQWFCNSY [TN10/9 Isolate G08 (phage isolate)], “binds”.
On the same count and under the same terms, with DWVCENKKDQWTCNLL [TN10/9 Isolate A07 (phage isolate)] the entry was “binds”.
